Values of other authors as cited in patent publication EP1964562A1, “PHARMACEUTICAL COMPOSITIONS CONTAINING DERIVATIVE SUBSTANCES OF THIAZOLIDINEDIONES COMBINED WITH A BIGUANIDE FOR USE IN TYPE 2 DIABETES MELLITUS” (priority 2005, dated 2007).
At least one read-out could not be matched to a standard name with certainty.

Settings: single dose, mean ± DS; cited from earlier work

CCc1ccc(CCOc2ccc(CC3SC(=O)NC3=O)cc2)nc1 (stereo not shown) [pioglitazone, Pioglitazone]
mean apparent distribution volume (Vd/F): 0.63 ± 0.41 l/kg of body weight
